# Results of single-concentration screens

A: 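Whole-cell growth test on Mycobacterium tuberculosis, read after 4 days in a medium based on cholesterol and the lipid DPPC; the read-out is not stated. Concentration: 500 µM. Direction is inferred from retests: higher values go with more growth inhibition. About 18,000 compounds were tested under these conditions; 5% (about 900) showed 50% or more at least once.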
B: 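Whole-cell growth test on Mycobacterium tuberculosis, read after 3 days in glucose-containing 7H9 medium; the read-out is not stated. Concentration: 500 µM. The record gives no direction; compounds that gave an IC50 in retests scored well above the rest, so higher reads as more growth inhibition. About 18,000 compounds were tested under these conditions; 7.9% (about 1,400) showed 50% or more at least once.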

Results are given as percent effect. The controls that fix the scale are not given in the record; negative values are as filed. This is an unselected part of the compounds tested.

With CC(=O)Nc1nc(CCN)cs1 the screen gave A: 14.53%; B: 18.23%. Result for CN(C)Cc1ccccc1CNC(=O)C1CC1 was A: -7.471%; B: -1.278%. CC(C(=O)NC(N)=O)N(C)CC1CCCC1 (stereo unspecified) read A: -6.678%; B: 8.319%. CC(N)c1nnc2ccccn12 (stereo unspecified) read A: -11.39%; B: 1.757%. Cc1nc(CN)cc(N2CCC(N3CCCC3)CC2)n1 read A: -7.122%; B: 38.98%. CN(C)C(CNC(=O)c1ccc(O)nc1)c1ccsc1 (stereo unspecified) read A: 1.888%; B: 9.363%.

Result for CCNC(=O)C1CCN(c2ccncc2Cl)CC1 was A: 1.738%; B: 1.491%. With COCCNc1ccc(OC)c(OC)c1 the screen gave A: 30.31%; B: 52.76%. With CC(C)(C)OC(=O)N[C@@H]1COCC[C@@H]1N the screen gave A: 6.219%; B: 0.9482%. Result for CSc1ccncc1N was A: 0.5444%; B: 0.6109%. With CSCCN(C)C(=O)c1cccc(CN(C)C)c1 the screen gave A: -15.49%; B: -13.36%. Result for Cc1ccc(CCNC(=O)NC(CO)CC(C)C)cn1 (stereo unspecified) was A: 30.78%; B: -6.843%.

NC1CCN(C(=O)C2(c3cccc(F)c3)CC2)CC1 read A: 4.297%; B: 1.534%. With CC1CN=C(N2CCN(C(=O)c3cccs3)CC2)S1 (stereo unspecified) the screen gave A: 12.81%; B: 13.43%. For CC(C)(C)Oc1ccc(NC(=O)N2CC[C@H](O)C2)cc1 the result was A: 17.72%; B: 28.94%. Cc1cccc(NC(=O)C2CCCNC2)n1 (stereo unspecified) read A: -10.01%; B: -1.053%. Result for O=C(CSCc1ccccc1Cl)NCC1CNCCO1 (stereo unspecified) was A: 21.65%; B: 40.01%. CN(C)CCCNC(=O)CSc1ccccc1 gave A: 8.89%; B: 29.72%.

For COCCn1ccc(N)n1 the result was A: 16.47%; B: 21.86%. For COC(=O)c1cc(S(=O)(=O)N2CCOCC2)cn1C the result was A: -11.56%; B: -0.1803%. CC(O)CNC(=O)c1ccc(C(F)(F)F)nc1 (stereo unspecified) gave A: -11.22%; B: -1.395%. With CN(C)S(=O)(=O)N1C[C@@H](CN2CCOCC2)[C@@H](CO)C1 the screen gave A: -12.76%; B: 15.63%. COC(=O)NC(C)C(=O)N1CCc2[nH]cnc2C1 (stereo unspecified) read A: 2.476%; B: 9.034%. For CC(C)(C(=O)N1CCOCC1)c1ccccc1 the result was A: -3.014%; B: 11.39%.

O=S(=O)(NCCNC1(CO)CCCC1)c1ccccc1 gave A: 2.091%; B: -4.459%. Cc1ccc(C(=O)N2CCSC2)cc1 gave A: -2.128%; B: 30.52%. Result for CCN(CC(C)C#N)C(=O)c1ccc2ccccc2n1 (stereo unspecified) was A: 36.84%; B: 46.73%. CCOc1ccc(C2=NNC(=O)CC2)cc1 read A: 26.94%; B: 44.27%. CN(C)c1cc(C(=O)Nc2nccs2)ccn1 gave A: -0.3828%; B: 0.9444%. For NC1CCCN(c2ccc(C(F)(F)F)cn2)C1 (stereo unspecified) the result was A: 0.5564%; B: 25.77%.

For O=C(NCC(O)CN1CCOCC1)c1ccccc1I (stereo unspecified) the result was A: 7.155%; B: 13.96%. Result for CC(C)CC(C)OCCC(=O)Nc1cn[nH]c1 (stereo unspecified) was A: -2.855%; B: 35.19%. Result for CC(N)Cc1nc(-c2ccccc2)no1 (stereo unspecified) was A: 41.8%; B: 58.01%. With O=C(COc1ccc(Br)cc1)NCc1nnc[nH]1 the screen gave A: 9.252%; B: 24.16%. Cc1cc(CSc2ncccc2C(=O)NC2CC2)no1 gave A: 2.589%; B: 16.01%. For Clc1ccc(CN2CCN(Cc3csnn3)CC2)nc1 the result was A: -13.12%; B: -10.38%.

Result for CNC(=O)c1ccccc1S(=O)(=O)CCOC was A: -0.104%; B: 0.8509%. For Cc1cccc(-n2nnnc2C)c1 the result was A: 24.14%; B: 15.5%. CS(=O)(=O)N1CCC(COCc2ccccc2)C1 (stereo unspecified) read A: 15.67%; B: 67.25%. With Cc1nnc(CNC(=O)COc2ccc(F)cc2F)o1 the screen gave A: 0.01713%; B: 0.1211%.

Some entries from above, unchanged:

* NC1CCN(C(=O)C2(c3cccc(F)c3)CC2)CC1 : A: 4.297%; B: 1.534%
* Cc1nnc(CNC(=O)COc2ccc(F)cc2F)o1 : A: 0.01713%; B: 0.1211%
* Cc1ccc(C(=O)N2CCSC2)cc1 : A: -2.128%; B: 30.52%
* CC(C)(C)OC(=O)N[C@@H]1COCC[C@@H]1N : A: 6.219%; B: 0.9482%

Measurements from “University of Dundee, Small-Polar-MMV Screening Library” (2021), ChEMBL document CHEMBL3988442.